According to paper PMC13189625:
Results are given in words; binding and its absence hold for the method and conditions named. Binding seen in cells or lysates may run through a third protein. These calls come from enrichment with a bait or labelling near it, and not all partners need be listed. One block for each binder: values may come before it.

Amino acid sequences for entries named in this document (tags omitted).
UniProt O54851: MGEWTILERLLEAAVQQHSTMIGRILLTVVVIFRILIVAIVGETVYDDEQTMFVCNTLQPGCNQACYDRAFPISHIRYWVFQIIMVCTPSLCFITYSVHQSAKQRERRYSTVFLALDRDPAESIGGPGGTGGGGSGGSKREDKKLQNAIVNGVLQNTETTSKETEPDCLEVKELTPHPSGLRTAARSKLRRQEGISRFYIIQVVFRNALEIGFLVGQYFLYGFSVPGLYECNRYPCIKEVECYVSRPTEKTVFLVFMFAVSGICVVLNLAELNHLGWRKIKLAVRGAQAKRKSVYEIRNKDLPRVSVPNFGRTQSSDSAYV

Biological target: Cx36-EGFP (mouse) (UniProt O54851)
Assay: proximity labelling; GFP-directed TurboID in vivo: AAV HKamac_V5-TurboID-dGBP injected intravitreally into Cx36-EGFP mice (AII amacrine cells); 5 mM biotin subcutaneously on 4 days; 17 retinas a condition; streptavidin pull-down and LC/MS/MS; compared with injected wild-type mice, SAINT; done twice

binding: binds
B4: Shank2 (protein, UniProt Q80Z38 1-1476)
chain: MKSLLNAFTKKEVPFREAPAYSNRRRRPPNTLAAPRVLLRSNSDNNLNAGAPEWAVCSAATSHRSLSPQLLQQTPSKPDGATKSLGSYTPGPRSRSPSLNRLGGTAEDGKRTQPHWHVGSPFTPGANKDSLSTFEYPGPRRKLYSAVPGRLFVAVKPYQPQVDGEIPLHRGDRVKVLSIGEGGFWEGSARGHIGWFPAECVEEVQCKPRDSQAETRADRSKKLFRHYTVGSYDSFDAASDCIIEDKTVVLQKKDNEGFGFVLRGAKADTPIEEFTPTPAFPALQYLESVDEGGVAWQAGLRTGDFLIEVNNENVVKVGHRQVVNMIRQGGNHLILKVVTVTRNLDPDDTARKKAPPPPKRAPTTALTLRSKSMTAELEELGLSLVDKASVRKKKDKPEEIVPASKPSRTAENVAIESRVATIKQRPTSRCFPAASDVNSVYERQGIAVMTPTVPGSPKGPFLGLPRGTMRRQKSIDSRIFLSGITEEERQFLAPPMLKFTRSLSMPDTSEDIPPPPQSVPPSPPPPSPTTYNCPRSPTPRVYGTIKPAFNQNPVVAKVPPATRSDTVATMMREKGMFYRRELDRFSLDSEDVYSRSPAPQAAFRTKRGQMPENPYSEVGKIASKAVYVPAKPARRKGVLVKQSNVEDSPEKTCSIPIPTIIVKEPSTSSSGKSSQGSSMEIDPQATEPGQLRPDDSLTVSSPFAAAIAGAVRDREKRLEARRNSPAFLSTDLGDEDVGLGPPAPRMQASKFPEEGGFGDEDETEQPLLPTPGAAPRELENHFLGGGEAGAQGEAGGPLSSTSKAKGPESGPAAPLKSSSPAGPENYVHPLTGRLLDPSSPLALALSARDRAMQESQQGHKGEAPKADLNKPLYIDTKMRPSVESGFPPVTRQNTRGPLRRQETENKYETDLGKDRRADDKKNMLINIVDTAQQKSAGLLMVHTVDVPMAGPPLEEEEDREDGDTKPDHSPSTVPEGVPKTEGALQISAAPEPAVAPGRTIVAAGSVEEAVILPFRIPPPPLASVDLDEDFLFTEPLPPPLEFANSFDIPDDRAASVPALADLVKQKKNDTSQPPTLNSSQPANSTDSKKPAGISNCLPSSFLPPPESFDAVTDSGIEEVDSRSSSDHHLETTSTISTVSSISTLSSEGGESMDTCTVYADGQAFVVDKPPVPPKPKMKPIVHKSNALYQDTLPEEDTDGFVIPPPAPPPPPGSAQAGVAKVIQPRTSKLWGDVPEVKSPILSGPKANVISELNSILQQMNRGKSVKPGEGLELPVGAKSANLAPRSPEVMSTVSGTRSTTVTFTVRPGTSQPITLQSRPPDYESRTSGPRRAPSPVVSPTELSKEILPTPPPPSATAASPSPTLSDVFSLPSQSPAGDLFGLNPAGRSRSPSPSILQQPISNKPFTTKPVHLWTKPDVADWLESLNLGEHKETFMDNEIDGSHLPNLQKEDLIDLGVTRVGHRMNIERALKQLLDR

binding: binds
B5: Sec22b (mouse retina) (protein, UniProt O08547 1-215)
chain: MVLLTMIARVADGLPLAASMQEDEQSGRDLQQYQSQAKQLFRKLNEQSPTRCTLEAGAMTFHYIIEQGVCYLVLCEAAFPKKLAFAYLEDLHSEFDEQHGKKVPTVSRPYSFIEFDTFIQKTKKLYIDSRARRNLGSINTELQDVQRIMVANIEEVLQRGEALSALDSKANNLSSLSKKYRQDAKYLNMRSTYAKLAAVAVFFIMLIVYVRFWWL

Further lines, the binder ahead of its results:

B1: Reticulon4 (protein, UniProt Q99P72 1-1162)
chain: MEDIDQSSLVSSSADSPPRPPPAFKYQFVTEPEDEEDEEDEEEEEDDEDLEELEVLERKPAAGLSAAPVPPAAAPLLDFSSDSVPPAPRGPLPAAPPTAPERQPSWERSPAASAPSLPPAAAVLPSKLPEDDEPPARPPAPAGASPLAEPAAPPSTPAAPKRRGSGSVDETLFALPAASEPVIPSSAEKIMDLKEQPGNTVSSGQEDFPSVLFETAASLPSLSPLSTVSFKEHGYLGNLSAVASTEGTIEETLNEASRELPERATNPFVNRESAEFSVLEYSEMGSSFNGSPKGESAMLVENTKEEVIVRSKDKEDLVCSAALHNPQESPATLTKVVKEDGVMSPEKTMDIFNEMKMSVVAPVREEYADFKPFEQAWEVKDTYEGSRDVLAARANMESKVDKKCFEDSLEQKGHGKDSESRNENASFPRTPELVKDGSRAYITCDSFSSATESTAANIFPVLEDHTSENKTDEKKIEERKAQIITEKTSPKTSNPFLVAIHDSEADYVTTDNLSKVTEAVVATMPEGLTPDLVQEACESELNEATGTKIAYETKVDLVQTSEAIQESIYPTAQLCPSFEEAEATPSPVLPDIVMEAPLNSLLPSTGASVAQPSASPLEVPSPVSYDGIKLEPENPPPYEEAMSVALKTSDSKEEIKEPESFNAAAQEAEAPYISIACDLIKETKLSTEPSPEFSNYSEIAKFEKSVPDHCELVDDSSPESEPVDLFSDDSIPEVPQTQEEAVMLMKESLTEVSETVTQHKHKERLSASPQEVGKPYLESFQPNLHITKDAASNEIPTLTKKETISLQMEEFNTAIYSNDDLLSSKEDKMKESETFSDSSPIEIIDEFPTFVSAKDDSPKEYTDLEVSNKSEIANVQSGANSLPCSELPCDLSFKNTYPKDEAHVSDEFSKSRSSVSKVPLLLPNVSALESQIEMGNIVKPKVLTKEAEEKLPSDTEKEDRSLTAVLSAELNKTSVVDLLYWRDIKKTGVVFGASLFLLLSLTVFSIVSVTAYIALALLSVTISFRIYKGVIQAIQKSDEGHPFRAYLESEVAISEELVQKYSNSALGHVNSTIKELRRLFLVDDLVDSLKFAVLMWVFTYVGALFNGLTLLILALISLFSIPVIYERHQAQIDHYLGLANKSVKDAMAKIQAKIPGLKRKAE
binding: binds

B2: Adenylyl cyclase-associated protein1 (protein, UniProt P40124 1-474)
chain: MADMQNLVERLERAVGRLEAVSHTSDMHCGYGDSPSKGAVPYVQAFDSLLANPVAEYLKMSKEIGGDVQKHAEMVHTGLKLERALLATASQCQQPAGNKLSDLLAPISEQIQEVITFREKNRGSKFFNHLSAVSESIQALGWVALAAKPGPFVKEMNDAAMFYTNRVLKEYRDVDKKHVDWVRAYLSIWTELQAYIKEFHTTGLAWSKTGPVAKELSGLPSGPSVGSGPPPPPPGPPPPPISTSSGSDDSASRSALFAQINQGESITHALKHVSDDMKTHKNPALKAQSGPVRSGPKPFSAPKPQTSPSPKPATKKEPALLELEGKKWRVENQENVSNLVIDDTELKQVAYIYKCVNTTLQIKGKINSITVDNCKKLGLVFDDVVGIVEIINSRDVKVQVMGKVPTISINKTDGCHAYLSKNSLDCEIVSAKSSEMNVLIPTEGGDFNEFPVPEQFKTLWNGQKLVTTVTEIAG
binding: binds

B3: G-protein-regulated inducer of neurite outgrowth 1 (protein, UniProt Q3UNH4 1-932)
chain: MRDCCSSPKAIPAPPRHALDQSLGMDPRHTSSSGAAEGASCSERPAGSLACPSPNCSPLPETPRAHGALTSDNSGTTLFGKPEPMSSAEATPTASEIRNPVFSGKMDGNSLKQADSTSTRKEEAGSLRNEESMLKGKAEPMIYGKGEPGTVGRVDCTASGAENSGSLGKVDMPCSSKVDIVSPGGDNAGSLRKVETISSGKMDPKTENVMHSRRERPGSTGEGDLVSLRENDMKPPDNTDSASTKKTDPEFSGKLTPGSSGKTELVSSVTVAPVTSENVNPVCSGGAGPAAVGNSETLSSVKKDPQLLGKKEAVSSGEGGSVSVRMAETVSARQPEGMFPAKTDSTSSNSTGPSGRADPVSLRNSELVSPVKPERLSSGQAERVSLVKTETLSSGKEDPRSSRRVDHTTVTGNMQTSQKGNPESSGKTDLGSSSSGDTRSLGTWGSLSAAKAEVTEGKGDPQPWKKASLPASEKTDPLASSKAGSASQGKAETVSPGEVDAMTLGKTVPTSSGKTALVSPGKVDLMTSERAEGIPELQASEKGNPVNSTRVDTGATGSTEPKSGVKVITQIPGATSPGKVETPSLQKEQPQLSEKTDPSRKVDPPTTVEPVSLGKADSASPSPRKAESQTSAKTVPQAPDKATSSLRQSDGTPYSSAQPQRDTRSIGSLPEREPSASTSQKDLAAAAAQKSPSAEAAAPPPGPRTRDNFTKAPSWDAGAPPPREDAGTQAGAQACVSVAVSPMSPQDGAGGPAFSFQAAPRAPSPAPRPPSRRDAGLQVSLGAAETRSVATGPMTPQAAAPPAVPPVFPEVRVRPGSVLAAALAPQEATEPVRDVSWDEKGMTWEVYGASMEVEVLGMAIQKHLERQIEEHGRQGAPAPAPPPAVRAGPGRAGSVRTAPAEGAAKRPPGLFRALLQSVRRPRCCSRAGPTAE
binding: binds
